This is one part of the list.

By UniProt entry, the sequences of proteins in these tests, tags left out.
UniProt Q0JBA9, entry or part of it: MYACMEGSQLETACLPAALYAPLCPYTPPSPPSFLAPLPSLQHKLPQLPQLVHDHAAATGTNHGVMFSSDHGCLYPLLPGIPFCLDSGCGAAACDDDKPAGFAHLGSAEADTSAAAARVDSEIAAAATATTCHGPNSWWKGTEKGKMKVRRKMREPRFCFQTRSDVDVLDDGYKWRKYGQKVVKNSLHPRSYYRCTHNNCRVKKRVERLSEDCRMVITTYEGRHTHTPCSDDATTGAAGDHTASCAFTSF

The target in the assay is OsWRKY34 (Oryza sativa, UniProt Q0JBA9 1-250). The assay is described as follows: protein-binding microarray (RPBM); PBS, 2% BSA, 51.3 ng/ul salmon testes DNA, 50 uM zinc acetate, 200 nM TF, 25 C, 1 h; high values mean tight binding. Conditions: protein: recombinant; tags: N-terminal polyhistidine and DsRed monomer fusion (pET32a); label: CyDye5-dUTP incorporated in the synthesized complementary strand; 3' TTTTT single-stranded linker to array surface; dsDNA, one strand shown. The gist of the method: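 Polyhistidine-tagged DsRed fusions of transcription factors, joined at the N-terminus, were expressed in E. coli BL21-CodonPlus and isolated on Ni–NTA. They were incubated at 200 nM for 1 h at 25 °C on a custom Agilent array, double-stranded and BSA-blocked, in PBS with 2% BSA, salmon testes DNA and 50 µM zinc acetate. The binding signal is per-feature fluorescence intensity (arbitrary units) read on an Axon 4000B scanner after washing.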
As for “GGCCGCCCTATCCCACTTTCGCCCAGCAACCAAACAACCTCGGAGTCACCTAGTGCAG”, the binding signal was 8300 fluorescence intensity (a.u.).
Turning to “TGATCCGACTGCATCCGCCCGTTTTCACCCCTACTTGCAACGGAGTCACCTAGTGCAG”, the binding signal was 8700 fluorescence intensity (a.u.).
On to “TTTTTAGTACATGTTTGACCGTTCGTCTTATTCAAAAAATCGGAGTCACCTAGTGCAG”, for which the binding signal is 10700 fluorescence intensity (a.u.).
In the case of “GATCGCGGCGAACGTTATCGTCGTCTGGCTCGTCTCGTCTCGGAGTCACCTAGTGCAG”, the binding signal is 8940 fluorescence intensity (a.u.).
Then “ATATCTCACTTTGACTGCTTGTTGTTATCGTTCTTTTATACGGAGTCACCTAGTGCAG”, with 12000 fluorescence intensity (a.u.); and “GACGGAGGTCCAACCCTATGCCCGCTGGTGTCCACTGTCCCGGAGTCACCTAGTGCAG”, with 8780 fluorescence intensity (a.u.).
Then “TCGTTTTCCGCACGTACGAACTATTAAATGGTGTGTTTTTCGGAGTCACCTAGTGCAG”, with 10100 fluorescence intensity (a.u.); and “TCCATCCATCTCGCTGTCCTGCACGTTTAGACGTTTACTTCGGAGTCACCTAGTGCAG”, with 12200 fluorescence intensity (a.u.).
Regarding “AGTTTTTTTTTCAGCTTTTTGGTTTCTTTTGCTGTTGTTTCGGAGTCACCTAGTGCAG”, the binding signal was 10300 fluorescence intensity (a.u.).
As to “TGCCTGGCACCGTCCCCATCGCCGGCCGCCTCCGCCTCCGCGGAGTCACCTAGTGCAG”, the binding signal was 11300 fluorescence intensity (a.u.).
As to “ATATGCTCATAGGGGTAGGGTTTGCGTGCGTGTGTTTATACGGAGTCACCTAGTGCAG”, the binding signal was 9250 fluorescence intensity (a.u.).
Then “ACCCGCACCTCCCTGGGCCCCACCTGTCATCCACCATTCCCGGAGTCACCTAGTGCAG”, with 9760 fluorescence intensity (a.u.).
Then “TGTATGCAACTATGCATGTAGTGTTTGATTTGCCTCTCTTCGGAGTCACCTAGTGCAG”, with 9610 fluorescence intensity (a.u.).
Then “AAGGGTTATCGACCTACGCCTGCTGGCCCTTTTCGGCTTTCGGAGTCACCTAGTGCAG”, with 9300 fluorescence intensity (a.u.).
With “TGGTTGGGTGGATGGATGGATCGCGTCGGTTGCGCGCAAACGGAGTCACCTAGTGCAG”, the binding signal is 12900 fluorescence intensity (a.u.).
Take “TTCCTTCCGCCGCATGCCCCGCTCCGCCGGTCATCCGCTTCGGAGTCACCTAGTGCAG”: the binding signal was 8510 fluorescence intensity (a.u.).
Regarding “GGGCTTAAATACGGACAATATTCGTCTATACGGGCTTTTGCGGAGTCACCTAGTGCAG”, the binding signal is 8780 fluorescence intensity (a.u.).
To “GGCCAGAATAACACTGGTGGTTTTAAGGGTAGGGGTTACACGGAGTCACCTAGTGCAG” belongs 9300 fluorescence intensity (a.u.); to “GGCTGGTACTGGGCTACTAGTCATCTTCTGCCTCTTCCTCCGGAGTCACCTAGTGCAG”, 8300 fluorescence intensity (a.u.); to “CTAGATTCTACAGTGTGCAGGGCGGGTGAAGACGTAACCACGGAGTCACCTAGTGCAG”, 8160 fluorescence intensity (a.u.).
To “GATTTTTCTTTTCCCGTTTCTTGAATTCATGGTCTCAGATCGGAGTCACCTAGTGCAG” belongs 8980 fluorescence intensity (a.u.); to “ACCCACCATCGAAATGGTCCAGGTCCATTTCGTCCATCCCCGGAGTCACCTAGTGCAG”, 9230 fluorescence intensity (a.u.); to “ACGCTCTCGGTCTCGGTCTCTCGCTTTTTACCACACTACTCGGAGTCACCTAGTGCAG”, 8420 fluorescence intensity (a.u.).
For the sequence “AACAACAGAGTAGGGGTGGGCATAAAAACCGTGAACCGAACGGAGTCACCTAGTGCAG”, the binding signal was 8970 fluorescence intensity (a.u.).
Turning to “ACCACCTGACCTCCCCTGCTACTAGCACCCCGACTTTTTTCGGAGTCACCTAGTGCAG”, the binding signal is 9110 fluorescence intensity (a.u.).
Then “ACACTGACCCTGACCCGAAGTCAATCTTTCAATGTTTCTTCGGAGTCACCTAGTGCAG”, with 8160 fluorescence intensity (a.u.); and “TGCAGCCCAACTCGTCGTCCACCTCACACTCGCCGCAGCCCGGAGTCACCTAGTGCAG”, with 10600 fluorescence intensity (a.u.).
“GTGGGCCAATGTTAGCTGGTGGTTGGGAGTTGGGGAGGAGCGGAGTCACCTAGTGCAG”: the binding signal was 13000 fluorescence intensity (a.u.).
As for “AGGGGTCCTTAATGTTCGTGGGATCAAAGGGTCAAAGTGACGGAGTCACCTAGTGCAG”, the binding signal was 11100 fluorescence intensity (a.u.).
To “TCACACAGGCATCGATTTACAATATTTACTGGAATGTTTACGGAGTCACCTAGTGCAG” belongs 8630 fluorescence intensity (a.u.).
As for “AAGTGTACATTCTATATCATATGTTTTTTTTATTTCTCTACGGAGTCACCTAGTGCAG”, the binding signal is 9890 fluorescence intensity (a.u.).
Then “GTCCGCCCCTGCTTCCAGATTATTACTATGGCTTTGACAACGGAGTCACCTAGTGCAG”, with 8360 fluorescence intensity (a.u.).
Take “AGTACCTAACTGATCAACAGCCAGCCATATACTGCTACCACGGAGTCACCTAGTGCAG”: the binding signal was 9130 fluorescence intensity (a.u.).
For the sequence “CGTATCTGCTCTGTTTTTCATCTCCTGTCATTTGTCTAAACGGAGTCACCTAGTGCAG”, the binding signal is 18500 fluorescence intensity (a.u.).
To “TCACCTTCAGATTTTGTTCTCGTCGATTAATTTCCCTGGTCGGAGTCACCTAGTGCAG” belongs 11300 fluorescence intensity (a.u.); to “CAATATGGAGTATATAGGTAGTTAGTGGTAGTAAGTAGTTCGGAGTCACCTAGTGCAG”, 8780 fluorescence intensity (a.u.).
Then “TCACACACACGAGGAAATTATTCATTACGCGTATATATACCGGAGTCACCTAGTGCAG”, with 8800 fluorescence intensity (a.u.).
As for “ATCGGTTATGTCAGGGTTATGGGTGCTTCCAAAAGAAAAACGGAGTCACCTAGTGCAG”, the binding signal was 9720 fluorescence intensity (a.u.).
To “CTCTTGATTTTCAGATAAGTTTGACCATTCATCTTATTAACGGAGTCACCTAGTGCAG” belongs 8140 fluorescence intensity (a.u.).
In the case of “AGTCATCACCCTTCTCTTTTTTGTTTTGTGTGATGCTAATCGGAGTCACCTAGTGCAG”, the binding signal is 11600 fluorescence intensity (a.u.).
As to “GACAACTCCACACACTAACTCTCTCTCCTTGTTGCTCCGACGGAGTCACCTAGTGCAG”, the binding signal was 8520 fluorescence intensity (a.u.).
To “AGAAGATGTGCTAATTGATTTTTGTTTTGTTTTGTGAAATCGGAGTCACCTAGTGCAG” belongs 8260 fluorescence intensity (a.u.).

Values taken from paper PMC7819943, “Rice protein-binding microarrays: a tool to detect cis-acting elements near promoter regions in rice”.
